{"source": "patent US20060286167A1", "about": "“Compositions and methods for the treatment of neurodegenerative diseases” (priority 2005, published 2006)", "tested_on": "SMN protein in SMA patient fibroblasts (GM03813)", "test": "SMN cytoblot assay (SMN protein levels in SMA patient fibroblasts)", "format": "cell-based, human", "details": "maximum signal-to-noise ratio log(T/U)/error among a compound's dose curves, cutoff 6, column Scoring says Automated or Visual selection", "text": "One method for monitoring SMN protein levels in cells is through use of a cytoblot assay, in which cells are fixed and probed with an antibody against a target protein of interest. We have used a cytoblot assay to determine the concentration of SMN protein in SMA patient fibroblasts, and have identified small molecules that increase SMN protein concentration.\nUsing the cytoblot assay, we can clearly distinguish SMN protein levels in patient (GM03813) versus carrier fibroblast cells (GM03814), as shown in the FIGS. 1A and 1B.\n• 1. Plate 50 μl per well of 300,000 cells/ml (15,000 cells per well) into Nunc white 384-well opaque-bottomed plates. • 2. Incubate plates at 37° C., 5% CO2 overnight. Day 2 • 1. Aspirate media from wells using Tecan plate washer. • 2. Fix cells by adding 20 μl/well of cold methanol (kept in −20° C. freezer). • 3. […] Aspirate plates using plate washer and add ECL luminescence solution, 20 μl/well. • 8. Measure luminescence on plate reader. […]\nWe scored each compound based on the maximum signal-to-noise ratio (SNR) found among its dose curves. […] The untreated level on each plate was found by taking the median of the untreated wells, and for each treated well we calculated a log(T/U) ratio. […] For each dose curve, we calculated the SNR for each data point log(T/U)/error, and chose the maximum point as our indicator of SMN induction activity. […]", "note": "At least one compound was matched to its structure with a doubt left.", "data": [{"compound": "CSCC[C@H](NC(=O)[C@H](Cc1c[nH]c2ccccc12)NC(=O)CCNC(=O)OC(C)(C)C)C(=O)N[C@@H](CC(=O)O)C(=O)N[C@@H](Cc1ccccc1)C(N)=O", "note": "[Pentagastrin]", "values": [{"measurement": "SNR", "result": 6.63}]}]}
